From patent US8598183B2, “Solid state forms of a potent HCV inhibitor” (Boehringer Ingelheim International GmbH, priority 2010, dated 2013)
At least one compound was matched to its structure with a doubt left.

Assay: Powder dissolution of triturated mixtures in capsules in 500 mL pH 6.8 buffer
Type: physicochemical
Conditions: 200 mg drug + Lysine + VitE TPGS (40 mg + 20 mg), capsule, 90 min
From the text: One class of solubilizer excipients, basifiers, act by increasing the microenvironment pH and thereby increasing the local solubility of the drug (for a drug containing an acid moiety). Another class of solubilizer excipients, surfactants, also act by increasing the local solubility of the drug. […] For example, an enhancement in dissolution was obtained when surfactants, for example, sodium lauryl sulfate or Vitamin E TPGS, were used in combination with basifiers, for example, L-arginine, meglumine or L-lysine. […] For example, only 1% drug release was obtained when Compound (1) sodium salt crystalline was present. The % drug release was 54% at 60 minutes in the presence of 100 mg Arginine alone and 59% in the presence of Sodium lauryl sulfate alone (Table 2). However, in presence of 100 mg of Arginine along with 100 mg of Sodium lauryl sulfate, the % drug release increased to 93% at 60 minutes (Table 3) indicating enhancement in dissolution when both surfactant and basifier were used in combination.

With `Cn1c(C2(NC(=O)c3ccc4c(C5CCCC5)c(-c5ncc(Br)cn5)n(C)c4c3)CCC2)nc2ccc(/C=C/C(=O)[O-])cc21.[Na+]` [Compound (1) sodium salt] as the molecule, how does the “% Release, Average of n = 2 (range)” value read?
The value was 69 69-69) %.
